From patent US20060233704A1 (priority 2000, published 2006)

Assay: general procedure: peptide synthesis; Rink-amide resin; HATU
Settings: whole synthesis, HPLC

D-Asp-Tyr-Nle-Gly-Trp-Nle-Asp-Phe-NH2
purity (crude or final not stated): >95%
